Primary screen of a compound library

Measurements from “University of Dundee, Small-Polar-MMV Screening Library” (2021), ChEMBL document CHEMBL3988442.

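Phenotypic screen: M. tuberculosis growth, glucose 7H9 medium, 3 days; the read-out is not stated. Tested at 50 µM. The record gives no direction; compounds that gave an IC50 in retests scored well above the rest, so higher reads as more growth inhibition. Of about 69,000 compounds tested this way, about 760 (1.1%) reached 50% or more in at least one test.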

The filed quantity is “Percent Effect” (%). The record does not define 0% and 100%; most values in the screen are far below 50% and negative numbers occur (in some assays of this library far below -100). This is an unselected part of the compounds tested. Two or more numbers in one place are separate tests of the same structure; such repeats can differ widely.

SMILES | percent effect
Cc1noc(C)c1CC(=O)NCCc1cccs1 | -11.43% and -7.275%
[H][C@@]12CCC[C@@H](OCc3cccnc3)[C@]1([H])CN(Cc1cnn(C)c1)C2 | -39.38%
Cc1nc(C)c(C(C)NCc2cnc(N3CCOCC3)nc2)s1.Cl (stereo not shown) | -1.044%
Cc1ccc(C)c(NC(=O)c2n[nH]c(-n3cnnc3)n2)c1 | 24.11%
CN1CCN(Cc2cccnc2)C2(CCN(Cc3ccccn3)C2)C1=O.O=C(O)C(F)(F)F.O=C(O)C(F)(F)F.O=C(O)C(F)(F)F (stereo not shown) | 0.3111% and 13.63%
CCC[C@@H]1CN(S(=O)(=O)c2ccc(C)c(F)c2)C[C@H]1N(C)C | 4.18%
O=C(C1CCCN1Cc1nc(-c2ccco2)no1)N1CCSCC1 (stereo not shown) | -22.53%
O=C(O)c1ccccc1-c1ccc(Cn2c(=O)cc[nH]c2=O)cc1 | -14.35%
Cc1oncc1C(=O)N1CCC2(CCN(Cc3cccc(F)c3)C2=O)C1 (stereo not shown) | -5.052%
Cc1nccn1CC1CCCN(S(=O)(=O)c2cnn(C)c2)C1 (stereo not shown) | 19.14%
Cc1noc(CCNC(=O)NCc2ccc(N3CCCCC3)cc2)n1 | 19.65%
O=C1CCCCN1CCCC(=O)N1CCC2(CC1)[C@H](O)C[C@@H]2O | -6.436%
Cc1ccc(N2CCC3(CCC(=O)N3)CC2)nn1 | -2.882% and -7.891%
O=C(CCOc1ccccc1)N1CCCC(c2ncc[nH]2)C1 (stereo not shown) | 1.61%
Cc1ccc(CN2CCN(C3CSCCSC3)CC2CCO)o1 (stereo not shown) | -2.015%
O=C(O)C(F)(F)F.[H][C@@]12COC[C@]1([H])[C@@H](OCC1CC1)CN2Cc1c(C)noc1C | 11.76%
COc1ccc(N2Cc3nc(N4CCCC4)ncc3C2=O)cc1Cl | 13.67%
CSCCC(NC(=O)c1ccc2ccccc2n1)C(=O)NC1CC1 (stereo not shown) | -23.59%
CC(C)CCN(C)Cn1ncc2cn(-c3ccccc3)nc2c1=O | -29.52%
Cc1occc1C(=O)N1CCC2(CCN(Cc3cccs3)C2)CC1.O=C(O)C(F)(F)F | -19.55% and -2.609%
Cc1ccnc(NC(=O)C2(n3cnnn3)CCCCC2)c1 | 17.77%
Cn1cncc1CN1CCC2(CC1)COCCN(S(C)(=O)=O)C2.O=C(O)C(F)(F)F | 9.105%
Cc1nn(C)c2c(=O)n(C)c(NCC3CCCO3)nc12 (stereo not shown) | -2.254% and 12.07%
CCc1nc2c(c(NCc3cc(-c4cccnc4)no3)n1)CCNCC2 | -3.083%
COc1cccc(N2CC3(CCN(c4ccncn4)C3)CC2=O)c1 (stereo not shown) | 4.624% and -4.578%
Cc1ccc(-c2nnc(NC(=O)c3ccn(C)c(=O)c3)[nH]2)s1 | 13.44% and -3.027%
O=C(O)C(F)(F)F.O=C(O)C(F)(F)F.[H][C@@]12CCCO[C@]1([H])[C@H](OCCCn1cccn1)CN2C1CCOCC1 | -20.27%
CCCN1CCC[C@]2(CCC(=O)N2Cc2ccncc2)[C@H]1CC.O=C(O)C(F)(F)F.O=C(O)C(F)(F)F | -4.969%
CCc1cn[nH]c1C1CCN(C(=O)c2cccc(O)c2C)CC1 | -23.01%
CC(=O)NC1CCCN(Cc2ccc(OCc3ccccn3)cc2)C1 (stereo not shown) | 29.09%
c1csc(-c2noc(CN3CCCCC3Cn3cccn3)n2)c1 (stereo not shown) | -2.933%
O=C(NCC1CC1)C1=NOC2(CCN(S(=O)(=O)c3cccs3)C2)C1 (stereo not shown) | 6.398%
COc1cc(Cl)c(CN2CCC(C(N)=O)C2)cc1Cl (stereo not shown) | -1.677% and 5.272%
Cc1nnc2n1CCN(C(=O)c1cnc3c(cnn3C(C)C)c1)C2 | -25.22%
CC1CN(CCC(=O)NCCc2cccnc2)Cc2ccccc2O1 (stereo not shown) | -5.339% and -17.36%
CN1C(=O)CC[C@]12CC[C@@H](NC(=O)NCc1cccnc1)CC2.O=C(O)C(F)(F)F | 4.437%
Cc1cnn(C2CN(CC(=O)N(C)Cc3ccc(C)o3)C2)c1 | -47.25%
CCn1c(=O)nc(N)c2c(-c3ccc(OC)cc3)csc21 | 10.31%
CCSCCNC(=O)C(c1cccc(F)c1)N(C)C (stereo not shown) | -24.49%
COCCC(=O)N1CCC(c2nc(O)cc(-c3ccncc3)n2)C1 (stereo not shown) | -3.334%
O=C(O)C(F)(F)F.[H][C@@]12CN(S(=O)(=O)c3ccc(C#N)cc3)C[C@]1([H])OCCN2C | -8.913% and -49.13%
Cn1ccnc1CN1CCOC(Cc2ccccc2)C1 (stereo not shown) | 10.49%
Cc1cnn(CCNCc2csc(-c3ccc(F)cc3)n2)c1 | 12.17%
CCn1c(C(=O)N2CCN(CC(C)O)CC2)cc2ccccc21 (stereo not shown) | 2.534%
O=S(=O)(NCC1CCN(CCN2CCOCC2)C1)c1ccccc1F (stereo not shown) | -41.34%
CC(C)OCCCN(CC(=O)N1CCNCC1)C(=O)c1cccc(Cl)c1.O=C(O)C(F)(F)F | 19.23%
CC1CCN(C(=O)c2cnn3c(-c4ccco4)ccnc23)CC1 | 11.78%
Cc1cnn(CC2CN(Cc3nc(-c4ccoc4)no3)CCO2)c1 (stereo not shown) | 4.425%
Cc1ccccc1C1(C(=O)NCCN(C(C)C)C(C)C)CCOCC1 | -18.19%
[H][C@@]12C[C@H](C(=O)Nc3cccnc3)[C@@]([H])(CN(S(=O)(=O)C3CC3)C1)O2 | -18.42%
COCCOc1ccc(CNc2nc3ccccc3nc2N)cn1 | 35.82%
CN(Cc1ccc(Cl)cc1)C(=O)Nc1cnn(CC(N)=O)c1 | -8.388% and -40.13%
Cn1nc(CNC(=O)C2CCCCC2)cc1C1CC1 | -1.686%
CCCC(C)C(=O)N1CCC(c2cc(N3CCOCC3)nc(C)n2)CC1 (stereo not shown) | -3.731%
COc1ccc(CNC(Cc2ccsc2)c2ccc(C)cn2)c(OC)c1 (stereo not shown) | 60.99%
CN(C)c1nccc(NCc2cc(-c3cccs3)n[nH]2)n1 | -1.392%
Cc1ccc(OCC(C)NS(=O)(=O)Cc2ccon2)cc1 (stereo not shown) | 8.933%
[H][C@@]12CS(=O)(=O)C[C@]1([H])N(C(=O)c1ccc(COC)o1)CCN2C(=O)CC | -6.09%
O=C1CC(c2ccc3c(c2)OCO3)c2cn[nH]c2N1 (stereo not shown) | 9.292%
CCS(=O)(=O)CC(=O)NC(c1ccccc1)C1CCCC1 (stereo not shown) | -4.86%
COc1ccc(OCCNCCn2cccn2)cc1 | -4.833%
O=C(Nc1cccc(CNCc2ccccn2)c1)C1CCCC1 | -16.63%
COc1cccc(C(O)CN2CCN(c3cccc(C)c3)CC2)c1 (stereo not shown) | 15.01%
Cc1cc(Nc2ccccn2)nc(C2CCCN(CCO)C2)n1.O=CO (stereo not shown) | -10.27%
CCc1nc(CN(C)C(=O)C2CCC(=O)N(CC3CCCCC3)C2)no1 (stereo not shown) | 9.51%
O=C1CN(S(=O)(=O)c2ccc(F)cc2)CC(O)CN1CC1CC1 (stereo not shown) | 19.32%
COc1ccc2cc(C3CN(C(=O)COC(C)C)CCO3)ccc2c1 (stereo not shown) | -14.04%
CCc1cc(NC2CCN(CC(N)=O)CC2)nc(N2CCCCC2)n1 | -5.053%
Cc1cc(NC(=O)CN2CCCC2c2noc(C3CC3)n2)on1 (stereo not shown) | -2.991%
O=C(Cn1cc(-c2ccccc2)cn1)N1CCNC1=O | 1.375%
Cc1nc(O)ccc1C(=O)N1CCCC1c1nc(-c2ccccc2)n[nH]1 (stereo not shown) | 17.31%
O=C1CCNc2ccc(F)cc2CN1Cc1ccccc1 | 2.745%

The first 9 entries again:

* Cc1noc(C)c1CC(=O)NCCc1cccs1 | -11.43% and -7.275%
* [H][C@@]12CCC[C@@H](OCc3cccnc3)[C@]1([H])CN(Cc1cnn(C)c1)C2 | -39.38%
* Cc1nc(C)c(C(C)NCc2cnc(N3CCOCC3)nc2)s1.Cl (stereo not shown) | -1.044%
* Cc1ccc(C)c(NC(=O)c2n[nH]c(-n3cnnc3)n2)c1 | 24.11%
* CN1CCN(Cc2cccnc2)C2(CCN(Cc3ccccn3)C2)C1=O.O=C(O)C(F)(F)F.O=C(O)C(F)(F)F.O=C(O)C(F)(F)F (stereo not shown) | 0.3111% and 13.63%
* CCC[C@@H]1CN(S(=O)(=O)c2ccc(C)c(F)c2)C[C@H]1N(C)C | 4.18%
* O=C(C1CCCN1Cc1nc(-c2ccco2)no1)N1CCSCC1 (stereo not shown) | -22.53%
* O=C(O)c1ccccc1-c1ccc(Cn2c(=O)cc[nH]c2=O)cc1 | -14.35%
* Cc1oncc1C(=O)N1CCC2(CCN(Cc3cccc(F)c3)C2=O)C1 (stereo not shown) | -5.052%